Assay results published in PubChem BioAssay AID1487 (National Center for Advancing Translational Sciences (NCATS), 2009).
The list shows a part of the results. These are further read-outs of the screen, such as a control signal, another cell line or another target. No call is given for them. Most of these compounds were active or inconclusive in the main read-out, so they are no random draw. Words in brackets tell the shape of the fitted curve; partial curves, single points and poor fits give uncertain potencies.

Experiment: qHTS Assay for Modulators of Lamin A Splicing
Settings: HeLa LMNA splicing GFP/RFP minigene ratio, 48 h
How it was run: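 S3 HeLa cells stably expressing lamin A-EGFP splicing minigene plus DsRed2, 600 cells/well, 48 h compound exposure at 37C. Laser-scanning cytometry; analysed as GFP (500-530 nm)/RFP (575-640 nm) total intensity ratio; 0.5% DMSO vehicle.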

[1] = measured here: GFP splicing reporter channel
[2] = measured here: RFP viability control channel

Question: What does the source list for `Cc1ccc[n+](CC(=O)Nc2cc(C(F)(F)F)ccc2N2CCOCC2)c1`?
Answer: AC50 [1]: 8.91 µM [rising, partial curve]; AC50 [2]: 10 µM [rising, partial curve]

Question: Which AC50 [2] does the source give for `COc1ccc(-c2nc(CCNC(=O)c3ccco3)cs2)cc1OC` here?
Answer: Its AC50 is 7.94 µM [rising, single point].

Question: Which AC50 [1] does the source give for `O=C(N/N=C/c1ccc2c(c1)OCO2)C(=O)Nc1ccc2ccccc2c1` here?
Answer: The AC50 was 0.0794 µM [rising, full curve].

Question: Which AC50 [2] does the source give for `C=CCN1C(=O)NC(c2ccc(OC)cc2)(C(F)(F)F)S/C1=C(\C#N)c1nnc(N2CCOCC2)n1-c1ccccc1` (stereo unspecified) here?
Answer: The AC50 was 12.6 µM [rising, partial curve].

Question: Which results are given for `O=C(c1cc2nc(-c3ccco3)cc(C(F)(F)F)n2n1)N1CCCCCC1`?
Answer: AC50 [1]: 5.01 µM [rising, full curve, poor fit]; AC50 [2]: 10 µM [rising, partial curve]

Question: Which AC50 [2] does the source give for `CC(C)Nc1nnc(SC(C)C(=O)NCc2ccc3c(c2)OCO3)s1` (stereo unspecified) here?
Answer: The AC50 was 35.5 µM [falling, partial curve, poor fit].

Question: With `CCOc1ccccc1NC(=O)C(=O)N/N=C/c1cc(Br)ccc1O` as the compound, how does the AC50 [2] read?
Answer: Its AC50 is 17.8 µM [falling, partial curve, poor fit].

Question: Which AC50 [2] does the source give for `COc1ccc(C(=O)/C=C/Nc2ccc(S(=O)(=O)Nc3cccc(C(C)=O)c3)cc2)cc1` here?
Answer: The AC50 was 11.2 µM [rising, partial curve, poor fit].

Question: For `CCOC(=O)c1ccc(NC(=O)C(=O)NCCc2ccc(OC)cc2)cc1`, which AC50 [1] is on record?
Answer: The AC50 was 6.31 µM [falling, partial curve].

Question: What about the AC50 [2] of the same compound?
Answer: Its AC50 is 2.24 µM [falling, partial curve, poor fit].

Question: What does the source list for `COc1cccc(-c2nc(Nc3ccncc3)c3ccccc3n2)c1`?
Answer: AC50 [1]: 17.8 µM [falling, partial curve]; AC50 [2]: 3.55 µM [falling, partial curve]

Question: Which results are given for `CN(C)CC[C@H](c1ccc(Br)cc1)c1ccccn1`?
Answer: AC50 [1]: 0.0562 µM [falling, single point]; AC50 [2]: 0.0631 µM [falling, full curve, poor fit]

Question: Which AC50 [2] does the source give for `O=C(Nc1ccccc1N1CCOCC1)c1cccc(NS(=O)(=O)c2ccc(F)c(F)c2)c1` here?
Answer: Its AC50 is 35.5 µM [rising, partial curve, poor fit].

Question: Which AC50 [1] does the source give for `COC(=O)c1cc(=O)c(O)c2c(O)c(O)ccc2c1` here?
Answer: The AC50 was 25.1 µM [falling, partial curve].

Question: What about the AC50 [2] of the same compound?
Answer: Its AC50 is 35.5 µM [falling, single point].

Question: Which AC50 [1] does the source give for `O=C(CCc1nnc(CCCCc2ccccc2)o1)N1CCC(N2CCCC2)CC1` here?
Answer: The AC50 was 3.16 µM [rising, partial curve].

Question: With `CCOC(=O)/C(=C\c1ccc(OC(F)F)cc1)C1=Nn2c(nnc2-c2ccc(Cl)cc2)SC1` as the compound, how does the AC50 [1] read?
Answer: The AC50 was 6.31 µM [falling, single point].

Question: What about the AC50 [2] of the same compound?
Answer: The AC50 was 6.31 µM [falling, single point].

Question: Which AC50 [2] does the source give for `Cn1c(CN2CCOCC2)nc2cc(NC(=O)c3ccc(F)cc3)ccc21` here?
Answer: Its AC50 is 31.6 µM [rising, single point].

Question: Which AC50 [2] does the source give for `Cc1ccc(C(=O)NNC(=O)CSc2n[nH]c(-c3cccnc3)n2)cc1` here?
Answer: Its AC50 is 3.98 µM [rising, single point].

Question: With `Cc1ccc(-c2nc(C(=O)Nc3cccc(C#N)c3)c3n2CCCCC3)cc1` as the compound, how does the AC50 [1] read?
Answer: The AC50 was 0.00891 µM [rising, full curve, poor fit].

Question: With `NC(=O)c1ccsc1NC(=O)c1ccc(S(=O)(=O)N2CCCc3ccccc32)cc1` as the compound, how does the AC50 [2] read?
Answer: Its AC50 is 0.708 µM [rising, full curve].

Question: For `Cc1noc2ncnc(Sc3c(Cl)cccc3Cl)c12`, which AC50 [1] is on record?
Answer: Its AC50 is 10 µM [falling, partial curve, poor fit].

Question: What about the AC50 [2] of the same compound?
Answer: Its AC50 is 12.6 µM [falling, partial curve].

Question: With `NC(=O)/C(=C/c1ccc2c(c1)OCO2)NC(=O)c1ccco1` as the compound, how does the AC50 [2] read?
Answer: Its AC50 is 0.708 µM [falling, full curve, poor fit].

Question: Which AC50 [2] does the source give for `Cc1cccc(Cn2c(NCCO)nc3c2c(=O)n(C)c(=O)n3C)c1` here?
Answer: The AC50 was 7.94 µM [rising, partial curve].

Question: For `Cn1nc([N+](=O)[O-])c(C(C#N)c2ccccn2)c(Cl)c1=O` (stereo unspecified), which AC50 [2] is on record?
Answer: Its AC50 is 14.1 µM [rising, partial curve].

Question: With `CC(=O)c1c(C(C)=O)c(C)n(Cc2ccc(Cl)cc2)c1C` as the compound, how does the AC50 [1] read?
Answer: Its AC50 is 1.41 µM [rising, partial curve].

Question: And the AC50 [2]?
Answer: Its AC50 is 14.1 µM [rising, partial curve].

Question: For `CCCCCn1c(Br)nc2c1c(=O)n(CC(N)=O)c(=O)n2C`, which AC50 [2] is on record?
Answer: Its AC50 is 5.01 µM [rising, partial curve].

Question: For `CN1N=C(C(C)(C)C)CSC1=Nc1ccccc1`, which AC50 [1] is on record?
Answer: Its AC50 is 3.98 µM [rising, partial curve].

Question: For `O=C(Nc1ccc(F)cc1)C1CCCO1` (stereo unspecified), which AC50 [1] is on record?
Answer: Its AC50 is 0.0316 µM [rising, full curve, poor fit].

Question: With `COc1ccc(CCNC(=O)c2cc3sccc3n2C)cc1OC` as the compound, how does the AC50 [1] read?
Answer: Its AC50 is 5.01 µM [rising, partial curve].

Question: What about the AC50 [2] of the same compound?
Answer: Its AC50 is 15.8 µM [rising, partial curve].

Question: With `O=C(O)c1cc(=O)[nH]c2c(Cl)cccc12` as the compound, how does the AC50 [1] read?
Answer: Its AC50 is 0.447 µM [falling, full curve, poor fit].

Question: Which AC50 [2] does the source give for `O=C(Nc1ccc(F)cc1)c1ccc(S(=O)(=O)NCC2CCCO2)cc1` (stereo unspecified) here?
Answer: Its AC50 is 22.4 µM [rising, single point].

Question: With `CN(Cc1ccccc1)c1ccc(N2C(=O)CCCC2=O)cc1[N+](=O)[O-]` as the compound, how does the AC50 [1] read?
Answer: Its AC50 is 20 µM [rising, partial curve, poor fit].

Question: What about the AC50 [2] of the same compound?
Answer: The AC50 was 17.8 µM [rising, single point].

Question: Which AC50 [2] does the source give for `CCN(CC)S(=O)(=O)c1cccc(C(=O)Nc2ccccc2)c1` here?
Answer: Its AC50 is 11.2 µM [rising, partial curve].

Question: Which AC50 [2] does the source give for `CCOc1ccc(OCc2ccc(C(=O)Nc3ccc(Cl)cn3)o2)cc1` here?
Answer: The AC50 was 14.1 µM [rising, single point].

Question: For `CCc1cc2c(=O)c(-c3nc4ccccc4n3C)coc2c(CN2CCOCC2)c1O`, which AC50 [2] is on record?
Answer: The AC50 was 10 µM [rising, partial curve, poor fit].

Question: With `CCOc1ccc(N2CC(C(=O)Nc3ccccn3)CC2=O)cc1` (stereo unspecified) as the compound, how does the AC50 [1] read?
Answer: Its AC50 is 14.1 µM [rising, partial curve, poor fit].

Question: And the AC50 [2]?
Answer: Its AC50 is 2.82 µM [rising, partial curve, poor fit].

Question: Which results are given for `O=C(Nc1ccc(Cl)cc1)c1cc(S(=O)(=O)N2CCCc3ccccc32)ccc1F`?
Answer: AC50 [1]: 4.47 µM [falling, partial curve, poor fit]; AC50 [2]: 0.01 µM [falling, full curve, poor fit]

Question: What does the source list for `CC(C)C[C@H](N)c1nnc(S(=O)(=O)Cc2cccc(F)c2)o1`?
Answer: AC50 [1]: 35.5 µM [falling, single point]; AC50 [2]: 35.5 µM [falling, single point]

Question: With `CCc1cccc(C)c1NC(=O)NC1COc2ccccc2C1` (stereo unspecified) as the compound, how does the AC50 [1] read?
Answer: Its AC50 is 0.355 µM [rising, partial curve, poor fit].

Question: For `CCc1nnc(NC(=O)CSc2ncc(-c3ccccc3)n2C)s1`, which AC50 [1] is on record?
Answer: Its AC50 is 35.5 µM [rising, single point].

Question: Which AC50 [2] does the source give for `C=COC(=O)CSc1nc(-c2cccs2)ccc1C#N` here?
Answer: The AC50 was 35.5 µM [rising, single point].

Question: Which AC50 [1] does the source give for `Fc1ccccc1Nc1nc2c(s1)CCc1ccccc1-2` here?
Answer: Its AC50 is 0.0631 µM [rising, full curve, poor fit].

Question: And the AC50 [2]?
Answer: Its AC50 is 0.158 µM [rising, full curve].

Question: For `COc1ccc(NC(=O)C(C)N2c3cccc4cccc(c34)S2(=O)=O)cc1` (stereo unspecified), which AC50 [2] is on record?
Answer: Its AC50 is 17.8 µM [rising, single point].

Question: For `O=C(Cc1ccc(Cl)cc1)NC(=S)Nc1ccccc1N1CCOCC1`, which AC50 [1] is on record?
Answer: The AC50 was 20 µM [rising, single point].

Question: What about the AC50 [2] of the same compound?
Answer: The AC50 was 14.1 µM [rising, single point].

Question: For `Cc1nn(-c2ccccc2)nc1C(N)=O`, which AC50 [2] is on record?
Answer: The AC50 was 0.0224 µM [falling, full curve, poor fit].

Question: Which AC50 [2] does the source give for `CN1C2=CC=CC=CC2=[N+](C)C12C=CC(=[N+]([O-])[O-])C=C2[N+](=O)[O-]` (stereo unspecified) here?
Answer: Its AC50 is 35.5 µM [rising, single point].

Question: Which AC50 [1] does the source give for `COc1ccccc1NC(c1cccnc1)c1ccc2cccnc2c1O` (stereo unspecified) here?
Answer: Its AC50 is 11.2 µM [falling, partial curve].

Question: And the AC50 [2]?
Answer: Its AC50 is 11.2 µM [falling, partial curve].

Question: Which AC50 [2] does the source give for `CN(C)C(=O)C12CCC(C)(c3nc4ccccc4nc31)C2(C)C` (stereo unspecified) here?
Answer: The AC50 was 0.141 µM [falling, full curve, poor fit].

Question: With `Cn1cc([N+](=O)[O-])c(C(=O)Nc2ccc(-c3nc4ccccc4[nH]3)cc2)n1` as the compound, how does the AC50 [2] read?
Answer: Its AC50 is 3.98 µM [rising, full curve].

Question: For `CC(C)CCn1c(O)c(N=Nc2ccccn2)c2ccccc21`, which AC50 [2] is on record?
Answer: Its AC50 is 15.8 µM [rising, partial curve, poor fit].

Question: With `Cn1c(=O)c(C(=O)COC(=O)c2cc(-c3ccccc3)nc3ccccc23)c(N)n(Cc2ccccc2)c1=O` as the compound, how does the AC50 [1] read?
Answer: Its AC50 is 3.98 µM [rising, single point].

Question: And the AC50 [2]?
Answer: Its AC50 is 2.82 µM [rising, full curve].

Question: Which AC50 [2] does the source give for `O=C(CCCSc1ccccc1)Nc1nc(-c2ccccn2)cs1` here?
Answer: Its AC50 is 31.6 µM [rising, single point].

Question: For `CCOC(=O)C(C(=O)OCC)c1cc(Br)c2noc3c2c1C(=O)c1ccccc1-3`, which AC50 [1] is on record?
Answer: The AC50 was 5.01 µM [falling, full curve].

Question: And the AC50 [2]?
Answer: Its AC50 is 5.62 µM [falling, full curve].

Question: For `O=C(O)CC(SCC(=O)Nc1ccc(S(=O)(=O)N2CCCC2)cc1)C(=O)O` (stereo unspecified), which AC50 [2] is on record?
Answer: Its AC50 is 0.112 µM [falling, full curve].

Question: With `COc1ccc(-c2csc(NC(=O)c3ccc(S(=O)(=O)N4CCc5ccccc5C4)cc3)n2)c(OC)c1` as the compound, how does the AC50 [2] read?
Answer: The AC50 was 2.82 µM [rising, full curve].

Question: With `O=C(CCn1c(=O)[nH]c2ccccc2c1=O)N1CCN(c2cccc(C(F)(F)F)c2)CC1` as the compound, how does the AC50 [1] read?
Answer: Its AC50 is 20 µM [rising, single point].

Question: What does the source list for `CCn1cc(C(=O)N2CCc3ccccc32)c(=O)c2cc(S(=O)(=O)N3CC(C)CC(C)C3)ccc21` (stereo unspecified)?
Answer: AC50 [1]: 20 µM [rising, single point]; AC50 [2]: 20 µM [rising, single point]
